In article PMC7596997 one finds screen value data, which are given here for 3 variants.

The chains are these.
B1: cytosolic domain of yeast Tom70 (His-Tom70_(38–617)) [yeast (Saccharomyces cerevisiae)] / ADP/ATP carrier (AAC) of Neurospora crassa, wild type [modified: [35S]-methionine; [35S]-methionine] [Neurospora crassa] (parent)
chain 1: MAEQQKVLGMPPFVADFLMGGVSAAVSKTAAAPIERIKLLVQNQDEMIRAGRLDRRYNGIIDCFKRTTADEGVMALWRGNTANVIRYFPTQALNFAFRDKFKKMFGYKKDVDGYWKWMAGNLASGGAAGATSLLFVYSLDYARTRLANDAKSAKKGGERQFNGLVDVYRKTIASDGIAGLYRGFGPSVAGIVVYRGLYFGLYDSIKPVLLVGDLKNNFLASFALGWCVTTAAGIASYPLDTIRRRMMMTSGEAVKYKSSFDAASQIVAKEGVKSLFKGAGANILRGVAGAGVLSIYDQLQVLLFGKAFKGGSG
chain 2: RGKKNTINKDEKKDTKDSQKETEGAKKSTAPSNPPIYPVSSNGEPDFSNKANFTAEEKDKYALALKDKGNQFFRNKKYDDAIKYYNWALELKEDPVFYSNLSACYVSVGDLKKVVEMSTKALELKPDYSKVLLRRASANEGLGKFADAMFDLSVLSLNGDFNDASIEPMLERNLNKQAMSKLKEKFGDIDTATATPTELSTQPAKERKDKQENLPSVTSMASFFGIFKPELTFANYDESNEADKELMNGLSNLYKRSPESYDKADESFTKAARLFEEQLDKNNEDEKLKEKLAISLEHTGIFKFLKNDPLGAHEDIKKAIELFPRVNSYIYMALIMADRNDSTEYYNYFDKALKLDSNNSSVYYHRGQMNFILQNYDQAGKDFDKAKELDPENIFPYIQLACLAYRENKFDDCETLFSEAKRKFPEAPEVPNFFAEILTDKNDFDKALKQYDLAIELENKLDGIYVGIAPLVGKATLLTRNPTVENFIEATNLLEKASKLDPRSEQAKIGLAQMKLQQEDIDEAITLFEESADLARTMEEKLQAITFAEAAKVQQRIRSDPVLAKKIQETLAKLREQGLM

The first experiment covers variants of B1. Briefly: Ni-NTA bead binding assay with [35S]-labeled protein, phosphorimager quantification. The note with it: Tom70cd C450A pretreated with 2 mM NEM, control = untreated C450A, n ≥ 6, read off a plot.
On to chain 2 C413A, for which the screen value is 58 % of control.

The experiment is the same for the next values; noted with them: no NEM, this bar is the normalisation control (100%) of the C450A pair, not a comparison with wild type, n ≥ 6, read off a plot.
For the variant chain 2 C413A, the screen value is 100 % of control.

The experiment is the same for the next values; noted with them: Tom70cd C439A pretreated with 2 mM NEM, control = untreated C439A, n ≥ 6, read off a plot.
On to chain 2 C402A, for which the screen value is 63 % of control.

The same experiment, now with this note: no NEM, this bar is the normalisation control (100%) of the C439A pair, not a comparison with wild type, n ≥ 6, read off a plot.
Regarding chain 2 C402A, the screen value is 100 % of control.

The experiment is the same for the next values; noted with them: Tom70cd C141A pretreated with 2 mM NEM, control = untreated C141A, n ≥ 6, read off a plot.
Take chain 2 C104A: the screen value was 100 % of control.

Still in this experiment, the particulars now being: no NEM, this bar is the normalisation control (100%) of the C141A pair, not a comparison with wild type, n ≥ 6, read off a plot.
Turning to chain 2 C104A, the screen value was 100 % of control.
